Primary screen of a compound library

Protein sequences, listed by entry. Tags and fused reporters are not part of them. Residues count along the entry.
UniProt A4I591, 1-473: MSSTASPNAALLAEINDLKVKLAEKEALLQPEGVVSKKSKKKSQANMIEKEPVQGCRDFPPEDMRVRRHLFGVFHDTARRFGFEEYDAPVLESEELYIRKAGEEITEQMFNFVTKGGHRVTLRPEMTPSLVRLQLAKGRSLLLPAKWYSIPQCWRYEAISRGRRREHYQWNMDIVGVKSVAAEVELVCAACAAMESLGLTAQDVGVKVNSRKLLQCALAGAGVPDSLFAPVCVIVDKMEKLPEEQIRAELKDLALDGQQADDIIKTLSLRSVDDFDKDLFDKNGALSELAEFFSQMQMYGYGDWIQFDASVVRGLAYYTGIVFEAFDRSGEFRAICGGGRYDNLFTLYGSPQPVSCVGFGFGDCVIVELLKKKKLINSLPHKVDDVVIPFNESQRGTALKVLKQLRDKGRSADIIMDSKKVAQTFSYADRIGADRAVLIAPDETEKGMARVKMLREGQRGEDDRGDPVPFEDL

Data taken from ChEMBL document CHEMBL3988442, “University of Dundee, Small-Polar-MMV Screening Library” (2021).

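Enzyme assay of histidyl-tRNA synthetase; the read-out is not stated. Target: Histidine-tRNA ligase, Leishmania infantum (UniProt A4I591). Tested at 30 µM. Higher reads as stronger inhibition (inferred: compounds with an IC50 in retests scored well above the rest). The assay is labelled LdHisRS but filed under L. infantum. About 69,000 compounds were tested under these conditions; 0.6% (about 410) showed 50% or more at least once.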

Results are given as percent effect.
The record does not define 0% and 100%; most values in the screen are far below 50% and negative numbers occur (in some assays of this library far below -100).
This is an unselected part of the compounds tested.

| structure | Percent Effect |
|---|---|
| `CCN1CCCC12CCN(C(=O)c1ccsc1)CC2` | 5.128 |
| `CCC(=O)N1CCc2[nH]cnc2C12CCN(C(=O)c1snnc1C)CC2` | 12.62 |
| `OC(COc1ccc(F)cc1)CN1CCC(Cn2cccn2)CC1` (stereo not drawn) | 12.5 |
| `CSc1ncc(C(=O)NCCn2nccc2C)cn1` | 2.899 |
| `O=c1oc(-c2ccc(F)cc2)nn1CCc1ccccn1` | 6.452 |
| `COCCCN(C)S(=O)(=O)c1ccc(Cl)cc1C#N` | 21.98 |
| `Nc1cc2c(nn1)CCN(C(=O)c1cccc3c1OCCO3)C2` | 21.92 |
| `Cc1occc1C(=O)N1CCC2(CC1)CN(Cc1nccs1)CCO2` | 28.77 |
| `O=C1CC(c2cccnc2)c2c(c(C(=O)O)cn2-c2ccccc2)N1` (stereo not drawn) | 27.18 |
| `Cc1cc(CC(C)NC(=O)COc2ccc(F)cc2F)[nH]n1` (stereo not drawn) | 15.38 |
| `Cc1cc(S(=O)(=O)N(CCO)C2CC2)ccc1F` | 2.073 |
| `CC(C)(C)OC(=O)N1CCCC[C@H]1C(=O)NCc1nccs1` | 5.66 |
| `COc1ccc(N2CCC(NC(=O)c3ccc(C#N)cc3)CC2)cc1` | -3.529 |
| `O=C(NCc1ccc(N2CCSCC2)cc1)NCc1cc[nH]n1` | 17.05 |
| `CCCS(=O)(=O)NC(=O)c1cc(C)n(-c2ccccc2)n1` | -3.947 |
| `Cc1nc(C)n(CC2CCCCN2Cc2nc(-c3ccoc3)no2)n1` (stereo not drawn) | 23.21 |
| `c1ccc(-c2nc(CN3CCn4c(nnc4C4CC4)C3)no2)cc1` | 7.937 |
| `CNS(=O)(=O)Cc1ccc(CNC(=O)Nc2cn[nH]c2)cc1` | -25.84 |
| `COc1cccc(-n2nnc(C(=O)N3CCC(C(N)=O)CC3)c2C)c1` | 17.59 |
| `CN1CCOCC12CCN(Cc1nccs1)CC2` | 17.54 |
| `O=C(Cc1ccc(F)cc1)NCCc1ccoc1` | 4.274 |
| `O=C(N[C@@H]1CN(Cc2ccc(F)cc2)C[C@H]1O)c1cscn1` | -21.74 |
| `CO[C@@H]1CC[C@H]2[C@H]1OCCN2C(=O)c1ccc(C)o1` | -2.913 |
| `CC(C)c1nc(CNC(C(=O)N2CCOCC2)C(C)C)no1` (stereo not drawn) | -0.8547 |
| `Cc1ccccc1N1CC(c2nnc(N)s2)CC1=O` (stereo not drawn) | 3.704 |
| `CCCN1C[C@H]2CC[C@@H]1CN(C(=O)Cn1c(C)cc(C)nc1=O)C2` | 33.33 |
| `CCN1CCCCC1C(=O)N1CCc2onc(-c3ccc(Cl)cc3)c2C1` (stereo not drawn) | 17.02 |
| `CCSCc1cccc(NC(=O)N(C)Cc2ncnn2C)c1` | 14.52 |
| `COc1ccc(NC(=O)CN2CCS(=O)(=O)CC2)cn1` | 16.44 |
| `Cc1nn(C(C)C)c(C)c1CN1CCC(c2cc(C(C)C)n[nH]2)CC1` | 20 |
| `CCc1cnccc1C(=O)Nc1ccc(C(N)=O)nc1` | 3.125 |
| `CCOC(=O)[C@H]1[C@@H](O)C(=O)N(C)C12CCN(C(=O)C(CC)CC)CC2` | 12.37 |
| `CCc1noc(CN(CC)C(=O)c2ccc3ncsc3c2)n1` | 8.065 |
| `CCCc1nc(NCC(=O)N2CCOCC2)c2c(n1)c(C)nn2CC` | 12.07 |
| `CC(=O)N[C@@H]1CN(Cc2ccccc2C(=O)O)C[C@H]1C(C)C` | 10.67 |
| `Cc1ccc(CN2CCn3cc(CN(C)Cc4ccco4)nc3C2)o1` | 22.33 |
| `CN1C[C@H]2CNC[C@@]2(C(=O)NC2CCN(c3ncccc3C#N)CC2)C1` | 0 |
| `CC1(c2[nH]ncc2C(N)=O)CCN(c2ncccn2)CC1` | 5.755 |
| `CCCS(=O)(=O)N1CC(=O)N(Cc2ccccc2OC)CC(O)C1` (stereo not drawn) | 18.37 |
| `CNC(=O)c1ccc(CN(C(=O)c2scnc2C)C2CC2)cc1` | 4.255 |
| `Cc1ccc(N2CC[C@H]3OCC[C@@]3(C(=O)NCC3CC3)C2)nn1` | 12.33 |
| `CNS(=O)(=O)CC(=O)NCc1cc2c(s1)CCCCC2` | 4.145 |
| `COCCN(C)C[C@@H]1CN(C(=O)c2ccc(=O)n(C)c2)C[C@@H]1CO` | 20.21 |
| `CCN(C)c1ncnc2c1CCN(C(=O)N(C)C)CC2` | 9.589 |
| `CS(=O)(=O)CC(=O)N1C[C@@H]2COC[C@]2(c2nnc(C3CC3)o2)C1` | 15.09 |
| `NC(=O)N1CCCC1COC(=O)c1ccc(F)cc1Br` (stereo not drawn) | 13.16 |
| `CCOC(=O)NCCC(=O)NCc1ccc(Oc2cccc(F)c2)nc1` | 18.28 |
| `N[C@@H]1CC[C@@H](Nc2nccc(CCC(F)(F)F)n2)C1` | 9.091 |
| `c1cc(-c2cncc(C3CCNCC3)n2)n[nH]1` | 8.511 |
| `Cc1nc(C)n(C2CCCN(C(=O)CCCOc3ccccc3)C2)n1` (stereo not drawn) | 10.96 |
| `O=C(NCC[S+]([O-])c1ccccc1)c1ccc2[nH]c(=O)[nH]c2c1` (stereo not drawn) | 24.71 |
| `CCC(NCc1ccccc1Cl)c1ccccc1OCC(=O)NC` (stereo not drawn) | 21.92 |
| `CC(Nc1ncnc2sccc12)c1cnn(C)c1` (stereo not drawn) | 12.77 |
| `Cc1ncsc1C(=O)NC1CCN(Cc2ccc(C(F)(F)F)cc2)CC1` | -3.571 |
| `CC(C)Nc1nc2c(c(NC3CC3)n1)CN(C(=O)Cc1ccsc1)CC2` | 3.419 |
| `COC(=O)c1ccc(OC)c(CN2CCN(CC(C)C)C(=O)C2C)c1` (stereo not drawn) | 10.75 |
| `COCCCNC(=O)CN1CCC(N2CCN(C)C2=O)CC1` | 3.39 |
| `O=C(c1ccncc1)N1Cc2ccccc2OC2(CCOCC2)C1` | 19.44 |
| `CS(=O)(=O)N1CCCCCC1C1CCN(c2ncccc2C#N)CC1` (stereo not drawn) | 16.8 |
| `Cc1c[nH]nc1C1CCCCN1C(=O)CNS(C)(=O)=O` (stereo not drawn) | -4.348 |
| `CCc1c(C)nn(CC(=O)NC(C(=O)O)c2c(C)n[nH]c2C)c1C` (stereo not drawn) | 16 |
| `Cc1cnn(CC2CCCN2CC(=O)Nc2nccs2)c1` (stereo not drawn) | 11.97 |
| `CC(=O)N1C[C@@H](c2ccsc2)[C@@H]2CN(Cc3ccccc3Cl)CC[C@@H]21` | 34.29 |
| `O=C(Nc1cn[nH]c1)N1CCCCCC1c1ccncc1` (stereo not drawn) | 17.24 |
| `O=C(NC1CCCc2nc(N3CCOCC3)ncc21)C1CCCC1` (stereo not drawn) | 5.208 |

Once more, the final 7:

{"structure": "CS(=O)(=O)N1CCCCCC1C1CCN(c2ncccc2C#N)CC1", "stereo": "stereo not drawn", "Percent Effect": 16.8}
{"structure": "Cc1c[nH]nc1C1CCCCN1C(=O)CNS(C)(=O)=O", "stereo": "stereo not drawn", "Percent Effect": -4.348}
{"structure": "CCc1c(C)nn(CC(=O)NC(C(=O)O)c2c(C)n[nH]c2C)c1C", "stereo": "stereo not drawn", "Percent Effect": 16}
{"structure": "Cc1cnn(CC2CCCN2CC(=O)Nc2nccs2)c1", "stereo": "stereo not drawn", "Percent Effect": 11.97}
{"structure": "CC(=O)N1C[C@@H](c2ccsc2)[C@@H]2CN(Cc3ccccc3Cl)CC[C@@H]21", "Percent Effect": 34.29}
{"structure": "O=C(Nc1cn[nH]c1)N1CCCCCC1c1ccncc1", "stereo": "stereo not drawn", "Percent Effect": 17.24}
{"structure": "O=C(NC1CCCc2nc(N3CCOCC3)ncc21)C1CCCC1", "stereo": "stereo not drawn", "Percent Effect": 5.208}